# Library screening results

Chains of the proteins cited; added tags and fusions are not shown.
UniProt E9BF75, entry or part of it: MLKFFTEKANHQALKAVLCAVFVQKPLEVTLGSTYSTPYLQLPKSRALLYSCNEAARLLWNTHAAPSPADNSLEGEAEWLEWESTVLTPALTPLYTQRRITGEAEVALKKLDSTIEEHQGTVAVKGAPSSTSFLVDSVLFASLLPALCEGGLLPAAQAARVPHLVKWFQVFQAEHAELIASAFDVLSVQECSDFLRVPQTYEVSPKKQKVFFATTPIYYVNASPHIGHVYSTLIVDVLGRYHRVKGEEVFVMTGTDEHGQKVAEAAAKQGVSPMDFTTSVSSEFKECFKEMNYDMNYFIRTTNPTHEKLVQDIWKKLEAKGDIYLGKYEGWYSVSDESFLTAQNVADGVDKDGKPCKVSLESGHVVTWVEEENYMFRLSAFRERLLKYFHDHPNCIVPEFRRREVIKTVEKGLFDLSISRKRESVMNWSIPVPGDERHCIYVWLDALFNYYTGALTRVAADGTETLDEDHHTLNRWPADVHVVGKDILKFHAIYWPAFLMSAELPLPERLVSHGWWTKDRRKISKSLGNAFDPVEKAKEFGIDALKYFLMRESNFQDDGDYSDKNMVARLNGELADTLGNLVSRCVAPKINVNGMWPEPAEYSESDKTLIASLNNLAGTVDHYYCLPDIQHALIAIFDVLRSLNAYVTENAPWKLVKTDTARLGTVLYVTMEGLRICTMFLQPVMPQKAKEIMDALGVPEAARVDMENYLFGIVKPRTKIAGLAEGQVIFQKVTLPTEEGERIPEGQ

All values are in %.
How 0% and 100% were set is not recorded. Most values in the screen are low, and negative values occur.
This is an unselected part of the compounds tested.

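Methionyl-tRNA synthetase (putative), Leishmania donovani (UniProt E9BF75). Primary screen of methionyl-tRNA synthetase; the read-out is not stated. The test concentration is not given. Values are per cent inhibition. About 68,000 compounds were tested under these conditions; 0.035% (about 24) showed 50% or more at least once.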

CC(C)=CCC1(CO)CCCN(Cc2nccs2)C1 (stereo not shown) gave 11.62%. Result for CN(C)S(=O)(=O)N1CCC(Oc2cccnn2)CC1 was 6.761%. For Cc1cc(NS(=O)(=O)c2cnc3onc(C)c3c2)no1 the result was 14.52%. For Cc1cnc(N2CCCn3c(nnc3CN(C)C(C)C)C2)nc1 the result was 11.48%. For COc1ccc(C2=C(C)C(N3CCc4ccccc43)=NS2(=O)=O)cc1 the result was 5.882%.

Result for CNCc1ccc(Oc2cncc(C)n2)cc1 was 9.704%. Result for CN1CCC(Cc2cc(Nc3ncccn3)ncn2)CC1 was 16.78%. Result for CC(C)CN1CCc2[nH]cnc2C12CCN(C(=O)c1cccnc1)CC2 was -2.927%. With Cn1cnc2c1CCN(CC(=O)N(Cc1ccccc1F)C1CC1)C2 the screen gave 17.28%. Cn1nc(C2CN(C(=O)c3ccncc3)C2)c2nccnc21 gave 8.333%.

CC(NC(=O)NCC1(c2ccc(F)cc2)CCCC1)c1nncn1C (stereo not shown) read 5.866%. With CN1C(=N)NC(=O)/C1=C\c1ccc(-c2ccc(F)cc2)o1 the screen gave 8.163%. Result for N#Cc1cccc(CN2C[C@@H]3CN(c4ncccn4)C[C@@H]3C2)c1 was 15.06%. With COc1ncccc1CN1C[C@@H]2COC[C@]2(COCC2CC2)C1 the screen gave 12.03%. For Cc1cc(N2CCC(Cc3cccnc3)CC2)ncn1 the result was -0.5249%.

O=S(=O)(C1CC1)N1CCO[C@H]2[C@@H](Oc3ncccc3F)CC[C@@H]21 gave 5.96%. For CCN1CCC2(CC1)CC(NC(=O)c1ccnnc1)c1ccccc12 (stereo not shown) the result was 12.68%. For Cc1ccc(OCCC(=O)NC2CCc3nccn3C2)cc1 (stereo not shown) the result was 19.01%. Result for CCN(CC)C(=O)c1nnsc1-c1ccc(C)cc1 was 4.348%. For CCCN1CCc2nc(N3CCOCC3)nc(NC(C)C)c2C1 the result was 17.58%.

CC(=O)N1[C@H](CN(C)C)C[C@@H]2CN(C(=O)c3cccc(F)c3)CC[C@@H]21 gave 12.46%. For Cc1nccc(C(=O)N2CCCC2c2c(C)nn(C)c2C)n1 (stereo not shown) the result was 8.309%. Result for COCC1CN(Cc2ccc3c(c2)OCO3)Cc2ncn(C)c21 (stereo not shown) was -10.38%. CCc1ncc(C(=O)NC(C)(C)C(=O)OC)s1 gave 3.141%. Result for CCC(Nc1nnnn1-c1ccccc1)C(=O)NC1CCSCC1 (stereo not shown) was 10.87%.

For COc1ccc(CN(C)[C@@H]2CN(C(=O)c3cccn3C)C[C@H]2O)cc1 the result was -94.27%. Cc1noc(C)c1-c1cccc(CC2CCN(C(=O)c3cscn3)C2)n1 (stereo not shown) gave 18.64%. Result for CC(C)c1noc(C[S+]([O-])CC(=O)Nc2ccc(F)c(F)c2)n1 (stereo not shown) was 4.381%. Result for Cc1cnn(CC2CN(Cc3csc(C(C)C)n3)CCO2)c1 (stereo not shown) was 9.945%. With Cc1ccc(Cl)c2ccc(NC(CO)CO)nc12 the screen gave 18.05%.

Result for CCOC(C)c1noc(CN2CCN(c3nnc(C)s3)CC2)n1 (stereo not shown) was 15.03%. Result for CC(C)NC(=O)c1ccc2c(c1)nc1n2CCN(Cc2ccccc2)C1 was 10.86%. CCc1noc(C(C)N2CCN(c3ccc(C#N)cc3F)CC2)n1 (stereo not shown) read 13.38%. With Cc1cc(C)n(Cc2cccc(C(=O)NCCSCC(C)(C)O)c2)n1 the screen gave 4.816%. COc1ccc(-c2noc(C(CC(C)C)N3CCCCC3=O)n2)cn1 (stereo not shown) read 8.992%.

Result for Cc1ccc(S(N)(=O)=O)cc1C(=O)NC1CCCN(C)C1 (stereo not shown) was 20.87%. For CC(C)n1cc(CN2CCCN(C(=O)c3ccco3)CC2)cn1 the result was 15.72%. With O=S(=O)(c1cccs1)N1Cc2nc(CN3CCCCC3)oc2C1 the screen gave 12.9%. Fc1cccc(OC2CCN(CCn3cc4ccccc4n3)CC2)c1 read 14.86%. Result for CCN(CC)c1ccc(C(=O)NCc2cccnc2-n2cncn2)cn1 was 11.52%.

COc1ccc(C(C)N(C)Cc2c(C(C)C)[nH]c3ncccc23)cc1 (stereo not shown) read 8.491%. Cc1ncc(CN2C[C@H]3C[C@H](OCc4ccccc4)C[C@H]3C2)cn1 read 15.43%. For Cc1cnc(CN(C)CC2CCCN2c2cccnn2)cn1 (stereo not shown) the result was 6.25%. For CCC[C@H]1CN(S(=O)(=O)c2cc(C)ccc2C)C[C@@H]1N the result was 19.94%. Result for CN(C)C(=O)[C@H]1C[C@@H]2CCN(Cc3ccncc3)C[C@H]2O1 was 0.6536%.

O=C1CN(CCCNS(=O)(=O)c2cccc(C(=O)NC3CC3)c2)CCN1 read 14.43%. With CCNc1cc2c(nn1)CCN(C(=O)c1cc3ccccc3o1)C2 the screen gave 14.74%. With O=C(COc1ccc2cccnc2c1)N1CCN[C@H]2CS(=O)(=O)C[C@H]21 the screen gave 7.117%. For CC[C@H](C)Nc1ncc(-c2cccc(NC(=O)CNC)c2)cn1 the result was 22.57%. CC(C)N(C)Cc1cnc2n1CCN(Cc1ccco1)C2 read 8.168%.

CCn1c(Cn2cncn2)nnc1C1CCN(CCN)CC1 gave 0.8621%. Result for CN(CCc1ccccn1)Cc1nccn1Cc1ccccc1 was 6.265%. For COc1cc2c(cc1OC)CCN(C(=O)Cn1nc(C)cc1C)CC2 the result was 17.71%. COCCN(Cc1ccco1)Cc1nc(-c2ccccc2)no1 gave 10.47%. For CCOCc1ccccc1NC(=O)NCC(C)(O)c1cc(C)oc1C (stereo not shown) the result was 19.62%.

With N#Cc1cccnc1N1CCN(C(=O)c2cccs2)CC1 the screen gave 11.59%. Result for COc1ccc(C(O)CNc2c(C#N)c(=O)n(C)c(=O)n2C)cc1 (stereo not shown) was 7.042%. For Cc1ccc(OCC(=O)NS(=O)(=O)c2c(C)noc2C)cc1C the result was 1.227%. CCCn1cnc2c(cnn2-c2cccc(C)c2C)c1=O read 9.859%.

The values are deposited in ChEMBL (CHEMBL3988442, “University of Dundee, Small-Polar-MMV Screening Library” (2021)).